Results published in the supplement of paper PMC6411743.
± gives the standard deviation of the averaged measurements. This is a selection; strong and weak results do not stand in their true shares.

Assays:
Test in all cases: NP40-soluble protein abundance relative to vehicle (solubility fold change) (ratio); higher = more soluble protein in presence of ATP
ACOX3 = molecular target: T1, ACOX3 (UniProt O15254)
T1 sequence (whole entry): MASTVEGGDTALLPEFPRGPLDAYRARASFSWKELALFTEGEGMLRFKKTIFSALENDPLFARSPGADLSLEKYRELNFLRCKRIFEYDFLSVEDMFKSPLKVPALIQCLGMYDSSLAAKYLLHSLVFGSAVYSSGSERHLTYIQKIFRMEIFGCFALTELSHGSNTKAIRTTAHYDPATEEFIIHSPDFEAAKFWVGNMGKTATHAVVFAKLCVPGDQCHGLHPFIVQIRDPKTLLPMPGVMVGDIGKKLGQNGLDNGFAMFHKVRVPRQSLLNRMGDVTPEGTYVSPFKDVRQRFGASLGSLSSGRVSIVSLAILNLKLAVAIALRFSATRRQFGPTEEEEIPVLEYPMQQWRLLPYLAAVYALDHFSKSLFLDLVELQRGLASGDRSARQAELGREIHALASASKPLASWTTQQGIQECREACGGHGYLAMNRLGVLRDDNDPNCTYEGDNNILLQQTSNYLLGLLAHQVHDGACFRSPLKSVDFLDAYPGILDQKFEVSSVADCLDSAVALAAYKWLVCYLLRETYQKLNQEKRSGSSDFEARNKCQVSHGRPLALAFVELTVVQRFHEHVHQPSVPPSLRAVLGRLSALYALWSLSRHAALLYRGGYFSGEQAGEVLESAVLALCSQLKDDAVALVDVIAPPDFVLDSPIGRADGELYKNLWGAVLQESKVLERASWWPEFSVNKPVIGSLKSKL
Method in brief: (§1)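 Data come from three independent experiments in which Dounce-homogenised Jurkat crude lysate was treated at eight concentrations from 0.1 to 10 mM. Treatment ran 10 min at room temperature and then 3 min at 37 °C, after which 0.8% NP40 and benzonase were added for 60 min at 4 °C before ultracentrifugation. The supernatant underwent TMT labelling and LC-MS/MS, and vsn-normalised intensities were expressed as fold change against the detergent-processed vehicle in each replicate.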

ADAM10 = molecular target: T2, ADAM10 (UniProt O14672)
T2 sequence (whole entry): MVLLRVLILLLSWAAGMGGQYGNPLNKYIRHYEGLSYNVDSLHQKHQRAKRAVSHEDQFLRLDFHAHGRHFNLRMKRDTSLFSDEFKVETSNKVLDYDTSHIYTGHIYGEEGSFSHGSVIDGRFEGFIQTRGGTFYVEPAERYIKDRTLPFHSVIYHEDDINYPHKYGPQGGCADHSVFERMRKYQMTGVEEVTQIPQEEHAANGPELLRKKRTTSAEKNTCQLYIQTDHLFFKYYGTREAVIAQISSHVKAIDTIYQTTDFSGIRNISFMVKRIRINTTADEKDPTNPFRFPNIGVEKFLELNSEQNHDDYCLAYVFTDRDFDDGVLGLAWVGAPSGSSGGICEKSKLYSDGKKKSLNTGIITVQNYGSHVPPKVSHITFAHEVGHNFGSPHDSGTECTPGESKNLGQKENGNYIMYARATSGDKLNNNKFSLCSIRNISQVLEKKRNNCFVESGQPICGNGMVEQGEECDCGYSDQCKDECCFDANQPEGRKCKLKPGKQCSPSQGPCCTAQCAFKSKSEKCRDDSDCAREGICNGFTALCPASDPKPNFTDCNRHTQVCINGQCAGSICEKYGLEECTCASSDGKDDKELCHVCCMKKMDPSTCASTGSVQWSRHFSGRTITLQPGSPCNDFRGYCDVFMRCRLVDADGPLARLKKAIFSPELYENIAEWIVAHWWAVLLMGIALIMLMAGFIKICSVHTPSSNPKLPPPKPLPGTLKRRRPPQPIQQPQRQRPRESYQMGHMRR
Method in brief: as §1

C2CD2L = molecular target: T3, C2CD2L (UniProt O14523)
T3 sequence (whole entry): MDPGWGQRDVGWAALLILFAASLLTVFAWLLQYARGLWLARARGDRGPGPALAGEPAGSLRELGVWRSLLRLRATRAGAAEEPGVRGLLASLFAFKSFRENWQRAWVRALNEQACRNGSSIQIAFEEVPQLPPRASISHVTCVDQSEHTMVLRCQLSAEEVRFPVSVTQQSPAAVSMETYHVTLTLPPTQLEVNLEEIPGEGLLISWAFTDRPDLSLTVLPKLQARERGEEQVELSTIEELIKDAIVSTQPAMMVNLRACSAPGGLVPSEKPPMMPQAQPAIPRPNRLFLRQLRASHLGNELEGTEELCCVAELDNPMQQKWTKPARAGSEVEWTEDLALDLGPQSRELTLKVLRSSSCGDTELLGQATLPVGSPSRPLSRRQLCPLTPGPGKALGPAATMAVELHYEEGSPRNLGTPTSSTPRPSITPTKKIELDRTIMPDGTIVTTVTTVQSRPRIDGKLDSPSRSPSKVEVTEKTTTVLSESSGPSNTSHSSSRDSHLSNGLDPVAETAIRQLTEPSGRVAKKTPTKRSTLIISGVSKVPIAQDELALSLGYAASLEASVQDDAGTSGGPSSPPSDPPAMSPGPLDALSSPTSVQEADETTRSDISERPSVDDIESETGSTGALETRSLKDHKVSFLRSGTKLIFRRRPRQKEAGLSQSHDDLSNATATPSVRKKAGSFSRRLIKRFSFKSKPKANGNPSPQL
Method in brief: as §1

FANCG = molecular target: T4, FANCG (UniProt O15287)
T4 sequence (whole entry): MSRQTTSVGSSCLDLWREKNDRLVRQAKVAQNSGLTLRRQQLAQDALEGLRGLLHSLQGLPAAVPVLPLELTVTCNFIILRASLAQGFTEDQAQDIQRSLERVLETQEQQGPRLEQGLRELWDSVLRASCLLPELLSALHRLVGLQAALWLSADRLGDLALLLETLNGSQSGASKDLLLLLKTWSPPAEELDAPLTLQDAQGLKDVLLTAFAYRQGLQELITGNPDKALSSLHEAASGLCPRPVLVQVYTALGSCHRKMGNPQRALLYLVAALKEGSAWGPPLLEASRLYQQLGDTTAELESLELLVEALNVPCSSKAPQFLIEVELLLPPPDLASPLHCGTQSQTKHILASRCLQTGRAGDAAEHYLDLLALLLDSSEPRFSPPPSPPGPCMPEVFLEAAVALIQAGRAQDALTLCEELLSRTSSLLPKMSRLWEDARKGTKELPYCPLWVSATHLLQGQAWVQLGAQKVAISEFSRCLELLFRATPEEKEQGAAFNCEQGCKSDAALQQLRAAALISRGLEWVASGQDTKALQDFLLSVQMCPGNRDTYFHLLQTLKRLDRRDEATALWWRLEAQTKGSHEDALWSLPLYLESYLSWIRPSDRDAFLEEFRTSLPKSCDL
Method in brief: as §1

HMGB3 = molecular target: T5, HMGB3 (UniProt O15347)
T5 sequence (whole entry): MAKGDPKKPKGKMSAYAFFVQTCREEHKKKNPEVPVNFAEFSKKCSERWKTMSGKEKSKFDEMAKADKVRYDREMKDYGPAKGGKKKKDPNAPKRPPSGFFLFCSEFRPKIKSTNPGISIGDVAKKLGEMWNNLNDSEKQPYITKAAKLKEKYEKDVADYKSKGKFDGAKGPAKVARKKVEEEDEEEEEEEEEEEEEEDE
Method in brief: as §1

LCMT2 = molecular target: T6, LCMT2 (UniProt O60294)
T6 sequence (whole entry): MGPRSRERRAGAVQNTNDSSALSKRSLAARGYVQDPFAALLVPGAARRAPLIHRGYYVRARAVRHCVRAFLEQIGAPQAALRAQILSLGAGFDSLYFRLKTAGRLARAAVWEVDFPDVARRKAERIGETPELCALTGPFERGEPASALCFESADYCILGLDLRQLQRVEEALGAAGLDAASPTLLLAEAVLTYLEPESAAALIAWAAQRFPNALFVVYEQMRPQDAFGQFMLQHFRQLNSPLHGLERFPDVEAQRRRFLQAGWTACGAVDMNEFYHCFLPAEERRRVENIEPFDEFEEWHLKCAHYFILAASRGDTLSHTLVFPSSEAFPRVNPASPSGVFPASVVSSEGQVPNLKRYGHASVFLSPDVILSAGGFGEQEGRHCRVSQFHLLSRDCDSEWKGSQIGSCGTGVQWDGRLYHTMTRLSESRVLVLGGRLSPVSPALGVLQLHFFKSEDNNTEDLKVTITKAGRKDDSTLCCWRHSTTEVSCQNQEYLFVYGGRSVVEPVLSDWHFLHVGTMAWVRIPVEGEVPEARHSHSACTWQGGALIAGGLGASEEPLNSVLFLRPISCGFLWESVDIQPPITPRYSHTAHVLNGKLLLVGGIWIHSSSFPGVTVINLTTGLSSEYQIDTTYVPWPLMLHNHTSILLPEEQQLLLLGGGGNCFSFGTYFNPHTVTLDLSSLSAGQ
Method in brief: as §1

Work on `Nc1ncnc2c1ncn2[C@@H]1O[C@H](COP(=O)(O)OP(=O)(O)OP(=O)(O)O)[C@@H](O)[C@H]1O` [adenosine triphosphate] yielded an NP40-soluble protein abundance (ACOX3; concentration: 1mM) of 1 ± 0.068, an NP40-soluble protein abundance (ACOX3; concentration: 2mM) of 0.999 ± 0.076 and an NP40-soluble protein abundance (ACOX3; concentration: 4mM) of 1.01 ± 0.073. The NP40-soluble protein abundance (ACOX3; concentration: 6mM) was 0.982 ± 0.066, the NP40-soluble protein abundance (ACOX3; concentration: 8mM) was 1.01 ± 0.041 and the NP40-soluble protein abundance (ACOX3; concentration: 10mM) was 0.985 ± 0.045. The NP40-soluble protein abundance (ADAM10; concentration: 1mM) was 0.973 ± 0.024, the NP40-soluble protein abundance (ADAM10; concentration: 2mM) was 0.984 ± 0.044 and the NP40-soluble protein abundance (ADAM10; concentration: 4mM) was 0.945 ± 0.043. The NP40-soluble protein abundance (ADAM10; concentration: 6mM) was 0.979 ± 0.043, the NP40-soluble protein abundance (ADAM10; concentration: 8mM) was 0.933 ± 0.037 and the NP40-soluble protein abundance (ADAM10; concentration: 10mM) was 0.949 ± 0.061. For the same compound, the NP40-soluble protein abundance (C2CD2L; concentration: 1mM) was 1 ± 0.13, the NP40-soluble protein abundance (C2CD2L; concentration: 2mM) was 1.05 ± 0.019 and the NP40-soluble protein abundance (C2CD2L; concentration: 4mM) was 1.07 ± 0.028. It also gave an NP40-soluble protein abundance (C2CD2L; concentration: 6mM) of 1.05 ± 0.072, an NP40-soluble protein abundance (C2CD2L; concentration: 8mM) of 0.982 ± 0.031 and an NP40-soluble protein abundance (C2CD2L; concentration: 10mM) of 1 ± 0.033. For the same compound, the NP40-soluble protein abundance (FANCG; concentration: 1mM) was 1.16 ± 0.053, the NP40-soluble protein abundance (FANCG; concentration: 2mM) was 1.05 ± 0.093 and the NP40-soluble protein abundance (FANCG; concentration: 4mM) was 1.11 ± 0.22. The NP40-soluble protein abundance (FANCG; concentration: 6mM) was 0.927 ± 0.12, the NP40-soluble protein abundance (FANCG; concentration: 8mM) was 1.01 ± 0.22 and the NP40-soluble protein abundance (FANCG; concentration: 10mM) was 1.09 ± 0.088. For the same compound, the NP40-soluble protein abundance (HMGB3; concentration: 1mM) was 1.01 ± 0.26, the NP40-soluble protein abundance (HMGB3; concentration: 2mM) was 0.915 ± 0.16 and the NP40-soluble protein abundance (HMGB3; concentration: 4mM) was 0.906 ± 0.2. It also gave an NP40-soluble protein abundance (HMGB3; concentration: 6mM) of 0.951 ± 0.19, an NP40-soluble protein abundance (HMGB3; concentration: 8mM) of 0.939 ± 0.085 and an NP40-soluble protein abundance (HMGB3; concentration: 10mM) of 0.78 ± 0.28. The NP40-soluble protein abundance (LCMT2; concentration: 1mM) was 0.978 ± 0.078, the NP40-soluble protein abundance (LCMT2; concentration: 2mM) was 1.02 ± 0.03 and the NP40-soluble protein abundance (LCMT2; concentration: 4mM) was 1.04 ± 0.032.
